Measurements from PubChem BioAssay AID252 (DTP/NCI, 2004).
The list is a part of this screen's results and no random one: it gathers tests that were run many times, whatever their T/C, doses with no T/C, and many T/C values between a quarter and a half above the control. Other doses and runs of a compound stand elsewhere. T/C is the treated group as % of the vehicle group. Some doses have a count of surviving animals in place of a T/C: the source holds a T/C of zero for them, seemingly a mark for toxic or unscored doses. Some survivor counts are full or nearly so, which does not show that the dose was tolerated: survival well below the control is almost never listed, so the zero probably covers shortened survival too. Survivors were counted at the toxicity check, usually on the fifth day, unless a day is given; later deaths do not show. Schedule codes are those of the source, read here as Q, the interval in days (D) or hours (H), X, the number of doses. For survival time, the PubChem record calls one and a half times the control and up active, and a quarter to a half above the control has no call in these data; cut-offs in other NCI protocols can differ. Some entries were tested several times; their values stand side by side, smallest first. Counts like (3×) stand for listed records that agree. Some T/C values carry the count of animals alive at the toxicity check (mostly the fifth day); where none is given, no animal had died by that day.

Test system: BDF1 mice, intracerebral L1210 leukemia, survival T/C
Assay: NCI In Vivo Anticancer Drug Screen. Data for tumor model L1210 Leukemia (intracerebral) in B6D2F1 (BDF1) mice
Conditions: higher T/C = longer survival
Outline: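 Survival measured in treated and vehicle-control tumour-bearing mice; value = T/C.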

## O=NN(CCCl)C(=O)NC1C2CC3CC(C2)CC1C3 (configuration not stated)
T/C endpoint: mean survival time, dose: 95.0 mg/kg/injection, schedule: Q01DX001 (ip), vehicle: other
  T/C: 128 % of control
T/C endpoint: mean survival time, dose: 362.0 mg/kg/injection, schedule: Q01DX001 (ip), vehicle: other
  T/C: 141 % of control [9 of 10 alive]

## O=NN(CCF)C(=O)Nc1c[nH]c(=O)[nH]c1=O
T/C endpoint: mean survival time, dose: 30.0 mg/kg/injection, schedule: Q01DX001 (ip), vehicle: carboxymethylcellulose (CMC)
  survivor count: 5 of 10

## COc1cccc2c1C(=O)c1c(O)c3c(c(O)c1C2=O)C[C@@](O)(C(=O)CO)C[C@@H]3OC1CC(N)C(O)C(C)O1 (some centres not stated)
T/C endpoint: mean survival time, dose: 8.0 mg/kg/injection, schedule: Q01DX005 (ip), vehicle: saline
  survivor count: 9 of 10
T/C endpoint: median survival time, dose: 1.08 mg/kg/injection, schedule: Q04DX003 (ip), vehicle: water, evaluated on day 5
  T/C: 99 and 104 % of control
T/C endpoint: median survival time, dose: 1.08 mg/kg/injection, schedule: Q04DX003 (ip), vehicle: water, evaluated on day 24
  T/C: 104 % of control
T/C endpoint: median survival time, dose: 1.08 mg/kg/injection, schedule: Q04DX003 (ip), vehicle: water, evaluated on day 60
  T/C: 99 % of control
T/C endpoint: median survival time, dose: 1.8 mg/kg/injection, schedule: Q04DX003 (ip), vehicle: water, evaluated on day 5
  T/C: 99, 101, 104, 110 % of control
T/C endpoint: median survival time, dose: 1.8 mg/kg/injection, schedule: Q04DX003 (ip), vehicle: water, evaluated on day 24
  T/C: 110 % of control
T/C endpoint: median survival time, dose: 1.8 mg/kg/injection, schedule: Q04DX003 (ip), vehicle: water, evaluated on day 60
  T/C: 100 % of control
T/C endpoint: median survival time, dose: 1.8 mg/kg/injection, schedule: Q04DX003 (ip), vehicle: water, evaluated on day 64
  T/C: 101 and 104 % of control
T/C endpoint: median survival time, dose: 3.0 mg/kg/injection, schedule: Q04DX003 (ip), vehicle: water, evaluated on day 5
  T/C: 95, 99, 101, 105 % of control
T/C endpoint: median survival time, dose: 3.0 mg/kg/injection, schedule: Q04DX003 (ip), vehicle: water, evaluated on day 24
  T/C: 101 % of control
T/C endpoint: median survival time, dose: 3.0 mg/kg/injection, schedule: Q04DX003 (ip), vehicle: water, evaluated on day 60
  T/C: 95 % of control
T/C endpoint: median survival time, dose: 3.0 mg/kg/injection, schedule: Q04DX003 (ip), vehicle: water, evaluated on day 64
  T/C: 100 and 105 % of control
T/C endpoint: median survival time, dose: 5.0 mg/kg/injection, schedule: Q04DX003 (ip), vehicle: water, evaluated on day 5
  T/C: 99 (2×), 109, 118 % of control
T/C endpoint: median survival time, dose: 5.0 mg/kg/injection, schedule: Q04DX003 (ip), vehicle: water, evaluated on day 24
  T/C: 118 % of control
T/C endpoint: median survival time, dose: 5.0 mg/kg/injection, schedule: Q04DX003 (ip), vehicle: water, evaluated on day 60
  T/C: 99 % of control
T/C endpoint: median survival time, dose: 5.0 mg/kg/injection, schedule: Q04DX003 (ip), vehicle: water, evaluated on day 64
  T/C: 99 and 109 % of control
T/C endpoint: median survival time, dose: 8.4 mg/kg/injection, schedule: Q04DX003 (ip), vehicle: water, evaluated on day 5
  T/C: 87, 93, 108, 115 % of control
T/C endpoint: median survival time, dose: 8.4 mg/kg/injection, schedule: Q04DX003 (ip), vehicle: water, evaluated on day 24
  T/C: 115 % of control [7 of 8 alive]
T/C endpoint: median survival time, dose: 8.4 mg/kg/injection, schedule: Q04DX003 (ip), vehicle: water, evaluated on day 60
  T/C: 87 % of control
T/C endpoint: median survival time, dose: 8.4 mg/kg/injection, schedule: Q04DX003 (ip), vehicle: water, evaluated on day 64
  T/C: 93 and 108 % of control

## S=P(N1CC1)(N1CC1)N1CC1
T/C endpoint: mean survival time, dose: 23.0 mg/kg/injection, schedule: Q01DX001 (ip), vehicle: saline
  T/C: 133 % of control [9 of 10 alive]

## NC(C/[N+]([O-])=N/O)C(=O)O (configuration not stated)
T/C endpoint: mean survival time, dose: 200.0 mg/kg/injection, schedule: Q01DX009 (ip), vehicle: other
  survivor count: 9 of 10

## CC(C)(C)C1CCC(NC(=O)N(CCCl)N=O)CC1 (configuration not stated)
T/C endpoint: mean survival time, dose: 750.0 mg/kg/injection, schedule: Q01DX001 (ip), vehicle: other
  T/C: 143 % of control [9 of 10 alive]
T/C endpoint: mean survival time, dose: 944.0 mg/kg/injection, schedule: Q01DX001 (ip), vehicle: other
  survivor count: 5 of 6

## CN(N=O)C(=O)NCCCCNC(=O)N(C)N=O
T/C endpoint: mean survival time, dose: 600.0 mg/kg/injection, schedule: Q01DX001 (ip), vehicle: carboxymethylcellulose (CMC)
  survivor count: 1 of 10
T/C endpoint: mean survival time, dose: 1000.0 mg/kg/injection, schedule: Q01DX001 (ip), vehicle: carboxymethylcellulose (CMC)
  survivor count: 2 of 10
T/C endpoint: mean survival time, dose: 1200.0 mg/kg/injection, schedule: Q01DX001 (ip), vehicle: carboxymethylcellulose (CMC)
  survivor count: 0 of 10
T/C endpoint: mean survival time, dose: 2400.0 mg/kg/injection, schedule: Q01DX001 (ip), vehicle: carboxymethylcellulose (CMC)
  survivor count: 0 of 10
T/C endpoint: mean survival time, dose: 4800.0 mg/kg/injection, schedule: Q01DX001 (ip), vehicle: carboxymethylcellulose (CMC)
  survivor count: 0 of 10
